Measurements published in patent US20250074896A1, “ARYLTETRAHYDROPYRIDAZINE DERIVATIVE OR SALT THEREOF AND INSECTICIDAL AGENT CONTAINING THE COMPOUND AND METHOD FOR USING SAME” (NIHON NOHYAKU CO., LTD., priority 2021, published 2025).
Some entries share one result that the patent states for a list of compounds.

Assays:
Format in all cases: in vivo
[1] = tested on: Small Brown Planthopper (Laodelphax striatellus); assay: Insecticidal test on small brown planthopper (dipped rice seedlings, 3rd-instar larvae); settings: rice seedlings dipped 30 seconds, 8 days after inoculation
[2] = tested on: Western Flower Thrips (Frankliniella occidentalis); assay: Insecticidal test on western flower thrips (kidney bean leaf pieces, hatched larvae); settings: 4 days after the treatment
[3] = tested on: Diamondback moth (Plutella xylostella); assay: Insecticidal test on diamondback moth (dip treatment of Chinese cabbage seedlings with laid eggs); settings: dip about 30 seconds, 6 days after treatment, 25° C.

COc1ccc(NC(=O)C2=C(O)CN(c3ccc(C(F)(F)F)nc3)NC2=O)cc1 [1-111]
A (the mortality rate is 100%): insecticidal efficacy (corrected mortality rate) against small brown planthopper ([1]; 500 ppm) | insecticidal efficacy (corrected mortality rate) against western flower thrips ([2]; 500 ppm) | insecticidal efficacy (corrected mortality rate) against diamondback moth ([3]; 500 ppm)

N#Cc1ccccc1NC(=O)C1=C(O)CN(c2ccc(C(F)(F)F)nc2)NC1=O [1-48]
A (the mortality rate is 100%): insecticidal efficacy (corrected mortality rate) against small brown planthopper ([1]; 500 ppm) | insecticidal efficacy (corrected mortality rate) against western flower thrips ([2]; 500 ppm) | insecticidal efficacy (corrected mortality rate) against diamondback moth ([3]; 500 ppm)

CC(C)C(=O)N1C(=O)C(C(=O)Nc2ccc(F)cc2)=C(O)CN1c1ccc(C(F)(F)F)nc1 [3-6]
A (the mortality rate is 100%): insecticidal efficacy (corrected mortality rate) against small brown planthopper ([1]; 50 ppm) | insecticidal efficacy (corrected mortality rate) against small brown planthopper ([1]; 500 ppm) | insecticidal efficacy (corrected mortality rate) against western flower thrips ([2]; 50 ppm) | insecticidal efficacy (corrected mortality rate) against western flower thrips ([2]; 500 ppm) | insecticidal efficacy (corrected mortality rate) against diamondback moth ([3]; 50 ppm) | insecticidal efficacy (corrected mortality rate) against diamondback moth ([3]; 500 ppm)

COC(=O)N1C(=O)C(C(=S)Nc2ccc(F)cc2)=C(O)CN1c1ccc(Br)nc1 [4-64]
A (the mortality rate is 100%): insecticidal efficacy (corrected mortality rate) against small brown planthopper ([1]; 50 ppm) | insecticidal efficacy (corrected mortality rate) against small brown planthopper ([1]; 500 ppm) | insecticidal efficacy (corrected mortality rate) against western flower thrips ([2]; 50 ppm) | insecticidal efficacy (corrected mortality rate) against western flower thrips ([2]; 500 ppm) | insecticidal efficacy (corrected mortality rate) against diamondback moth ([3]; 50 ppm) | insecticidal efficacy (corrected mortality rate) against diamondback moth ([3]; 500 ppm)

Cn1ccc(NC(=O)C2=C(O)CN(c3ccc(C#N)cn3)NC2=O)n1 [1-291]
A (the mortality rate is 100%): insecticidal efficacy (corrected mortality rate) against small brown planthopper ([1]; 50 ppm) | insecticidal efficacy (corrected mortality rate) against small brown planthopper ([1]; 500 ppm) | insecticidal efficacy (corrected mortality rate) against western flower thrips ([2]; 500 ppm) | insecticidal efficacy (corrected mortality rate) against diamondback moth ([3]; 500 ppm)

COC(=O)N1C(=O)C(C(=O)Nc2ccc(F)cc2)=C(O)CN1c1ccc(C#N)c(Cl)c1 [3-408]
A (the mortality rate is 100%): insecticidal efficacy (corrected mortality rate) against small brown planthopper ([1]; 50 ppm) | insecticidal efficacy (corrected mortality rate) against small brown planthopper ([1]; 500 ppm) | insecticidal efficacy (corrected mortality rate) against western flower thrips ([2]; 50 ppm) | insecticidal efficacy (corrected mortality rate) against western flower thrips ([2]; 500 ppm) | insecticidal efficacy (corrected mortality rate) against diamondback moth ([3]; 50 ppm) | insecticidal efficacy (corrected mortality rate) against diamondback moth ([3]; 500 ppm)

COC(=O)N1C(=O)C(C(=O)Nc2ccccn2)=C(O)CN1c1ccc(Br)nc1 [3-519]
A (the mortality rate is 100%): insecticidal efficacy (corrected mortality rate) against small brown planthopper ([1]; 50 ppm) | insecticidal efficacy (corrected mortality rate) against small brown planthopper ([1]; 500 ppm) | insecticidal efficacy (corrected mortality rate) against western flower thrips ([2]; 50 ppm) | insecticidal efficacy (corrected mortality rate) against western flower thrips ([2]; 500 ppm) | insecticidal efficacy (corrected mortality rate) against diamondback moth ([3]; 500 ppm)

N#Cc1cccc(NC(=O)C2=C(O)CN(c3cnc(C#N)c(Cl)c3)NC2=O)n1 [1-287]
A (the mortality rate is 100%): insecticidal efficacy (corrected mortality rate) against small brown planthopper ([1]; 50 ppm) | insecticidal efficacy (corrected mortality rate) against small brown planthopper ([1]; 500 ppm) | insecticidal efficacy (corrected mortality rate) against western flower thrips ([2]; 50 ppm) | insecticidal efficacy (corrected mortality rate) against western flower thrips ([2]; 500 ppm) | insecticidal efficacy (corrected mortality rate) against diamondback moth ([3]; 500 ppm)

CC(C)(C)OC(=O)N1C(=O)C(C(=O)Nc2ccc(F)cc2)=C(O)CN1c1ccc(C#N)nc1 [3-309]
A (the mortality rate is 100%): insecticidal efficacy (corrected mortality rate) against small brown planthopper ([1]; 50 ppm) | insecticidal efficacy (corrected mortality rate) against small brown planthopper ([1]; 500 ppm) | insecticidal efficacy (corrected mortality rate) against western flower thrips ([2]; 50 ppm) | insecticidal efficacy (corrected mortality rate) against western flower thrips ([2]; 500 ppm) | insecticidal efficacy (corrected mortality rate) against diamondback moth ([3]; 50 ppm) | insecticidal efficacy (corrected mortality rate) against diamondback moth ([3]; 500 ppm)

COC(=O)N1C(=O)C(C(=O)Nc2ccc(F)c(F)c2)=C(O)CN1c1ccc(Cl)nc1 [3-152]
A (the mortality rate is 100%): insecticidal efficacy (corrected mortality rate) against small brown planthopper ([1]; 50 ppm) | insecticidal efficacy (corrected mortality rate) against small brown planthopper ([1]; 500 ppm) | insecticidal efficacy (corrected mortality rate) against western flower thrips ([2]; 50 ppm) | insecticidal efficacy (corrected mortality rate) against western flower thrips ([2]; 500 ppm) | insecticidal efficacy (corrected mortality rate) against diamondback moth ([3]; 50 ppm) | insecticidal efficacy (corrected mortality rate) against diamondback moth ([3]; 500 ppm)

N#Cc1ccc(N2CC(O)=C(C(=O)Nc3ccc(Cl)nc3)C(=O)N2)nc1 [1-293]
A (the mortality rate is 100%): insecticidal efficacy (corrected mortality rate) against small brown planthopper ([1]; 50 ppm) | insecticidal efficacy (corrected mortality rate) against small brown planthopper ([1]; 500 ppm) | insecticidal efficacy (corrected mortality rate) against western flower thrips ([2]; 50 ppm) | insecticidal efficacy (corrected mortality rate) against western flower thrips ([2]; 500 ppm) | insecticidal efficacy (corrected mortality rate) against diamondback moth ([3]; 50 ppm) | insecticidal efficacy (corrected mortality rate) against diamondback moth ([3]; 500 ppm)

COCCOC(=O)N1C(=O)C(C(=S)Nc2ccc(C#N)cc2)=C(O)CN1c1ccc(C#N)nc1 [4-68]
A (the mortality rate is 100%): insecticidal efficacy (corrected mortality rate) against small brown planthopper ([1]; 50 ppm) | insecticidal efficacy (corrected mortality rate) against small brown planthopper ([1]; 500 ppm) | insecticidal efficacy (corrected mortality rate) against western flower thrips ([2]; 50 ppm) | insecticidal efficacy (corrected mortality rate) against western flower thrips ([2]; 500 ppm) | insecticidal efficacy (corrected mortality rate) against diamondback moth ([3]; 50 ppm) | insecticidal efficacy (corrected mortality rate) against diamondback moth ([3]; 500 ppm)

CCNC(=O)N1C(=O)C(C(=O)Nc2ccc(F)cc2)=C(O)CN1c1cnc(C#N)cn1 [3-39]
A (the mortality rate is 100%): insecticidal efficacy (corrected mortality rate) against small brown planthopper ([1]; 50 ppm) | insecticidal efficacy (corrected mortality rate) against small brown planthopper ([1]; 500 ppm) | insecticidal efficacy (corrected mortality rate) against western flower thrips ([2]; 50 ppm) | insecticidal efficacy (corrected mortality rate) against western flower thrips ([2]; 500 ppm) | insecticidal efficacy (corrected mortality rate) against diamondback moth ([3]; 50 ppm) | insecticidal efficacy (corrected mortality rate) against diamondback moth ([3]; 500 ppm)

Cn1ccc(NC(=O)C2=C(O)CN(c3ccc(Br)nc3)NC2=O)n1 [1-271]
A (the mortality rate is 100%): insecticidal efficacy (corrected mortality rate) against small brown planthopper ([1]; 50 ppm) | insecticidal efficacy (corrected mortality rate) against small brown planthopper ([1]; 500 ppm) | insecticidal efficacy (corrected mortality rate) against western flower thrips ([2]; 50 ppm) | insecticidal efficacy (corrected mortality rate) against western flower thrips ([2]; 500 ppm) | insecticidal efficacy (corrected mortality rate) against diamondback moth ([3]; 500 ppm)
